Article PMC8202924, “Emodepside targets SLO-1 channels of Onchocerca ochengi and induces broad anthelmintic effects in a bovine model of onchocerciasis” (PLoS Pathogens, 2021)

Legend:
[1] = test system: polymorphonuclear cells in O. ochengi nodules; assay: Nodular polymorphonuclear cell counts per high-power field; assay type: in vivo, zebu (Ngaoundéré Gudali) cattle; conditions: MRSM, 4 mg/kg every other day for 3 days; for Nodular PMN counts per high-power field, mixed-effects coefficient vs pre-treatment (day 1): SE 81.56
[2] = test system: eosinophils in O. ochengi nodules; assay: Nodular eosinophils as percentage of polymorphonuclear cells; assay type: in vivo, zebu (Ngaoundéré Gudali) cattle; conditions: MRSM, 4 mg/kg every other day for 3 days

NCCS[As](SCCN)c1ccc(Nc2nc(N)nc(N)n2)cc1 [melarsomine]
Nodular PMN counts per high-power field, mixed-effects coefficient (SE) vs placebo ([1]; day 90): −31.96 (37.23) | Nodular PMN counts per high-power field, mixed-effects coefficient vs pre-treatment (day 1) ([1]; day 90): −89.76 | Nodular PMN counts per high-power field, mixed-effects coefficient (SE) vs placebo ([1]; day 180): −2.50 (90.62) | Nodular PMN counts per high-power field, mixed-effects coefficient vs pre-treatment (day 1) ([1]; day 180): −17.19 | Nodular PMN counts per high-power field, mixed-effects coefficient (SE) vs placebo ([1]; day 290): −98.33 (93.14) | Nodular PMN counts per high-power field, mixed-effects coefficient vs pre-treatment (day 1) ([1]; day 290): −114.19 | Nodular eosinophils as % of total PMN, mixed-effects coefficient (SE) vs placebo ([2]; day 90): –1.40 (13.34) | Nodular eosinophils as % of total PMN, mixed-effects coefficient (SE) vs placebo ([2]; day 180): –41.88 (19.04) | Nodular eosinophils as % of total PMN, mixed-effects coefficient (SE) vs placebo ([2]; day 290): –8.47 (13.17)
